± gives the standard deviation of the averaged measurements. Single values are uncertain here, since repeats match poorly.
How the values were obtained:
XL888 [1] = compound: T1, CC[C@@H](C)Nc1cc(C(=O)N[C@H]2C[C@H]3CC[C@@H](C2)N3c2ccc(C(=O)C3CC3)cn2)c(C)cc1C(N)=O [XL888]; assay: phosphopeptide melting temperature shift (XL888 minus DMSO); higher = stabilised by drug treatment; conditions: 100 µM; treatment time 2 h; layout: intact cells; SK-Mel 28
Description: (§1)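 Phospho-TPP in intact SK-Mel 28 cells treated with 100 uM XL888 or DMSO for 2 h, heated at 10 temperatures (37-67 C) for 3 min, soluble fraction TMT10plex-labelled and TiO2 phospho-enriched. Melting curves were fitted per phosphopeptide; the value is the melting point difference (drug minus vehicle) in each of two biological replicates.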

Amino acid sequences for entries named in this document (tags omitted). A change or cut given only in a name is not applied to a line headed by its entry.
UniProt Q8NE71: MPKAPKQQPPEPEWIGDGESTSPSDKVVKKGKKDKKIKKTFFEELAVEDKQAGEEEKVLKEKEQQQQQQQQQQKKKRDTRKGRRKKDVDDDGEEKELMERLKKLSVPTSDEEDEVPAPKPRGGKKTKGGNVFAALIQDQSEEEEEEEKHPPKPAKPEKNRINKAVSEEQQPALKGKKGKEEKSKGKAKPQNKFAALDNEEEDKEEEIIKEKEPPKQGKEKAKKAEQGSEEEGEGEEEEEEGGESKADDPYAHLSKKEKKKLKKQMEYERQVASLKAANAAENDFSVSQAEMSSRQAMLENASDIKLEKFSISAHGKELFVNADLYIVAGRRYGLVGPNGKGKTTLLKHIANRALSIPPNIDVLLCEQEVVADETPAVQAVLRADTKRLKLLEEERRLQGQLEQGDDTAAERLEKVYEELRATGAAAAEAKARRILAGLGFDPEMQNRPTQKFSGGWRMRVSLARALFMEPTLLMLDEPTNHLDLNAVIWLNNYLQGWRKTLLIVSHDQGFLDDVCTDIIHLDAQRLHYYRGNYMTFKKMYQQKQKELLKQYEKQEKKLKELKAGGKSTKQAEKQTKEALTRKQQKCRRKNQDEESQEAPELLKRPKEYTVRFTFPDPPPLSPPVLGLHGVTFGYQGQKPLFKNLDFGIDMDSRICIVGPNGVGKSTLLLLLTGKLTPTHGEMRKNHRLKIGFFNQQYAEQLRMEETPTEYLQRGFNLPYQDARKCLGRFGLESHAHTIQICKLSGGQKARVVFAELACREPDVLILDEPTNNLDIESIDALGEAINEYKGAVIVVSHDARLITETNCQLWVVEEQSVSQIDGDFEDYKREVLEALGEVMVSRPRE
UniProt Q01433: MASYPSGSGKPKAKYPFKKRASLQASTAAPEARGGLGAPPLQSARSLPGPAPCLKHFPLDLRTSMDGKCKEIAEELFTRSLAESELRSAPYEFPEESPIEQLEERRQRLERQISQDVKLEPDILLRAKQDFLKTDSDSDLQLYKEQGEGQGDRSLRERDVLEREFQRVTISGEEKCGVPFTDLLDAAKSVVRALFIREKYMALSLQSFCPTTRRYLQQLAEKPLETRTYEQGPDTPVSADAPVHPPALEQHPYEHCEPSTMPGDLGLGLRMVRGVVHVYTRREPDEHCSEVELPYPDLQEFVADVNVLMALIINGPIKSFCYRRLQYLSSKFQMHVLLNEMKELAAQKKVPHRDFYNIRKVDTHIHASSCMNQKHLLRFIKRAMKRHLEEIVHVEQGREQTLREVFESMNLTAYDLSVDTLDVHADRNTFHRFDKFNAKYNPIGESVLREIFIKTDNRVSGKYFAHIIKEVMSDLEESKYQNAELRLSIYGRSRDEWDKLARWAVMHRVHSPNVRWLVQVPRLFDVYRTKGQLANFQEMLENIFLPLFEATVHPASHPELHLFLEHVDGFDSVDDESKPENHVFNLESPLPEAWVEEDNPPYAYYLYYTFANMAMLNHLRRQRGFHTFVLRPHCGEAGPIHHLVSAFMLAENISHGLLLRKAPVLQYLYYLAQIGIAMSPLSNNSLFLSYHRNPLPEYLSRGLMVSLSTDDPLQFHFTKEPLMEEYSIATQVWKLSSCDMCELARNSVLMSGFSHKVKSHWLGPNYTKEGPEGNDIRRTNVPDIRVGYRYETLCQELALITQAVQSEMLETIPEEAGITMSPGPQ
UniProt Q92625: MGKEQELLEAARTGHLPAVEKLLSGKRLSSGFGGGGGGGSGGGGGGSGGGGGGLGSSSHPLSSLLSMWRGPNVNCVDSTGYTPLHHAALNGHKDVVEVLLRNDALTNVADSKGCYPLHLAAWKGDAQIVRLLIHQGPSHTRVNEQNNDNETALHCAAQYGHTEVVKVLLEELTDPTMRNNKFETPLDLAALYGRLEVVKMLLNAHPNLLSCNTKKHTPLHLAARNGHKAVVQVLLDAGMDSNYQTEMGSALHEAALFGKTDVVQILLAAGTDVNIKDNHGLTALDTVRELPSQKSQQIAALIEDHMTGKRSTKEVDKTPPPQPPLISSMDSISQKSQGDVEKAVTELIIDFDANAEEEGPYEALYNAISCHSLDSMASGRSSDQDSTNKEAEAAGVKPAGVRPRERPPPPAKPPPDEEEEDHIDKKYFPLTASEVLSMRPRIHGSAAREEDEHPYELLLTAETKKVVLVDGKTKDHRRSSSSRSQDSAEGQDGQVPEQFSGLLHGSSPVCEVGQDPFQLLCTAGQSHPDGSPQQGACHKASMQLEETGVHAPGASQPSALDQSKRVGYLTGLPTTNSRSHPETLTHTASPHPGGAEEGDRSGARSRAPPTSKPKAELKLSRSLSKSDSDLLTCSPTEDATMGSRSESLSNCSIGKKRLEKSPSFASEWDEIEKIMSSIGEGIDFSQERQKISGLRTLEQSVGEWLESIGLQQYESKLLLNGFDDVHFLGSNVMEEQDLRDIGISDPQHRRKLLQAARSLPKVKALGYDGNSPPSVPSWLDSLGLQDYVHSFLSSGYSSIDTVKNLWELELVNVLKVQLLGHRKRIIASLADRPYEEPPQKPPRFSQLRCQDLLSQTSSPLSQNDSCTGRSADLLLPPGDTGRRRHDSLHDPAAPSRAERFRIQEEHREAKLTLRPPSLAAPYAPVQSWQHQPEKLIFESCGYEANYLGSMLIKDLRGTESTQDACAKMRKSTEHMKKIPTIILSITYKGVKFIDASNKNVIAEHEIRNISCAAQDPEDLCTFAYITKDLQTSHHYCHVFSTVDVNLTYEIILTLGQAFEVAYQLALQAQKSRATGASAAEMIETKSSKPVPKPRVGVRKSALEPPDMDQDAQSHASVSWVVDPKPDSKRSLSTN
UniProt O15085: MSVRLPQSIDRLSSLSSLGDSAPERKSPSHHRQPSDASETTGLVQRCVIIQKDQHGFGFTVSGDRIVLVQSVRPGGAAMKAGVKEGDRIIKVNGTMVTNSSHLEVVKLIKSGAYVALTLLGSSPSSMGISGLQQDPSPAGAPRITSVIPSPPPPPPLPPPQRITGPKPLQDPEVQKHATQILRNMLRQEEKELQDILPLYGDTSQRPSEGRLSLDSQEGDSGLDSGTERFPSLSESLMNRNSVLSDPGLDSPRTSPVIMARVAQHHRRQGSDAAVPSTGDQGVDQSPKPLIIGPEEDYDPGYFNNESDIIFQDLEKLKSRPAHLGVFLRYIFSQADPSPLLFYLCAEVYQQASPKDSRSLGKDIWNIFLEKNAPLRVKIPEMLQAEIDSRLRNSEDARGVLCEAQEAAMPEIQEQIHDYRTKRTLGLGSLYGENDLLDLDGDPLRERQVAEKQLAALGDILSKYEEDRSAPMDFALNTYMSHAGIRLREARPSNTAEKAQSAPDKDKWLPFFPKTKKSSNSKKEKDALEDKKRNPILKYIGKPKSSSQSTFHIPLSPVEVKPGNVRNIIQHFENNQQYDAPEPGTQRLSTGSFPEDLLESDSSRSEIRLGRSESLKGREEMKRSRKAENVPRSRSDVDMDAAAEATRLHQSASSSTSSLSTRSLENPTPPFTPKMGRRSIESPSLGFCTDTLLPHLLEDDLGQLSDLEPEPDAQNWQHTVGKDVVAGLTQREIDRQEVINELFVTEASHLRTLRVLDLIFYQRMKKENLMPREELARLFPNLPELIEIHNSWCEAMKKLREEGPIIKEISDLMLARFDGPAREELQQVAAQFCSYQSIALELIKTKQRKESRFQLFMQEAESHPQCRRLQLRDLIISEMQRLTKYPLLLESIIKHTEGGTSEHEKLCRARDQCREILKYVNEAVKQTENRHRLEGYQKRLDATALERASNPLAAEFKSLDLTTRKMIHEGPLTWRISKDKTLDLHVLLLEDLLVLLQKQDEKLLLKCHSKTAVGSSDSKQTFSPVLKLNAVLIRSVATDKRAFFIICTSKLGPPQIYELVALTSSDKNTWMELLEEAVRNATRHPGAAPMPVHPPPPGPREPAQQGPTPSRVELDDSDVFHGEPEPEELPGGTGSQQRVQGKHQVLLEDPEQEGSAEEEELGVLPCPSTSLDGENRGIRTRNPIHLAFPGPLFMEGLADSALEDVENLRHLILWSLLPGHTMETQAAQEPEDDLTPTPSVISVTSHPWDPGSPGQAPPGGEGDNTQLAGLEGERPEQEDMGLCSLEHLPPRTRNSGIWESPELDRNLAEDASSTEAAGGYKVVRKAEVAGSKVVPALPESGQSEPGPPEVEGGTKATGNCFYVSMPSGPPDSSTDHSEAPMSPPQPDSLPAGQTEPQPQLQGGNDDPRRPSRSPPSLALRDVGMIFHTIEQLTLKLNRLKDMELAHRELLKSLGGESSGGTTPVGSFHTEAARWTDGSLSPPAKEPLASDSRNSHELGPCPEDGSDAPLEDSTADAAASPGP
UniProt P27824: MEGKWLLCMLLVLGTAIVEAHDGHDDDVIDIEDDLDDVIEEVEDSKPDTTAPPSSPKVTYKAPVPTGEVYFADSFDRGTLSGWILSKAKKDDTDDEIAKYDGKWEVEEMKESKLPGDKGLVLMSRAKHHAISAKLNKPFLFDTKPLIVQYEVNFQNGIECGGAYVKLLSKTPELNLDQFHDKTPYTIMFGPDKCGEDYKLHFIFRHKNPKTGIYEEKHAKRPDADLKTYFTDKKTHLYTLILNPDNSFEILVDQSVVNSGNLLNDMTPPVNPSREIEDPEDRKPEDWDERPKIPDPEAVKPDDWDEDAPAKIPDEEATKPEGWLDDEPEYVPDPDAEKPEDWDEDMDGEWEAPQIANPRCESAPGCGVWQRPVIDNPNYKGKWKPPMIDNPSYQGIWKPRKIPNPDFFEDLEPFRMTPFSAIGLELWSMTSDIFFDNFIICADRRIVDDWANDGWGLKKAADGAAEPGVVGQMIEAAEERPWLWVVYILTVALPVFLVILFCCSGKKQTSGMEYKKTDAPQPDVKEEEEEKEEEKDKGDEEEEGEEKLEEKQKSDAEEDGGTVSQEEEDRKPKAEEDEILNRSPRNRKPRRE
UniProt Q9Y2V2: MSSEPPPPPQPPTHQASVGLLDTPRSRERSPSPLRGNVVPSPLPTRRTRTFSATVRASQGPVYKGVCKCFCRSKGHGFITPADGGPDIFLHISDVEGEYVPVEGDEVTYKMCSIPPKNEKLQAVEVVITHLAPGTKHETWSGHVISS
UniProt P24534: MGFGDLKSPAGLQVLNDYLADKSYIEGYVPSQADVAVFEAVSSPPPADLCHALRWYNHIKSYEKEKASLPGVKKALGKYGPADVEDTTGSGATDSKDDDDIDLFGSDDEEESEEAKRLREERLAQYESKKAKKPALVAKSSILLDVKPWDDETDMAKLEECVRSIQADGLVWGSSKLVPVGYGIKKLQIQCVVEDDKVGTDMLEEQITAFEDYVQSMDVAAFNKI
UniProt P63104: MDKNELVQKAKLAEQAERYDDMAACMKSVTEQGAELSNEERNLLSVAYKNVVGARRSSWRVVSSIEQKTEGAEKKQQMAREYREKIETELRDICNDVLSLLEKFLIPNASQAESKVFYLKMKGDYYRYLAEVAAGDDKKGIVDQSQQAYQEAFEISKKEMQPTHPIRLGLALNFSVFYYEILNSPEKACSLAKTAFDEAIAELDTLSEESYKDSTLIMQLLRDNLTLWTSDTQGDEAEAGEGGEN
UniProt Q86WB0: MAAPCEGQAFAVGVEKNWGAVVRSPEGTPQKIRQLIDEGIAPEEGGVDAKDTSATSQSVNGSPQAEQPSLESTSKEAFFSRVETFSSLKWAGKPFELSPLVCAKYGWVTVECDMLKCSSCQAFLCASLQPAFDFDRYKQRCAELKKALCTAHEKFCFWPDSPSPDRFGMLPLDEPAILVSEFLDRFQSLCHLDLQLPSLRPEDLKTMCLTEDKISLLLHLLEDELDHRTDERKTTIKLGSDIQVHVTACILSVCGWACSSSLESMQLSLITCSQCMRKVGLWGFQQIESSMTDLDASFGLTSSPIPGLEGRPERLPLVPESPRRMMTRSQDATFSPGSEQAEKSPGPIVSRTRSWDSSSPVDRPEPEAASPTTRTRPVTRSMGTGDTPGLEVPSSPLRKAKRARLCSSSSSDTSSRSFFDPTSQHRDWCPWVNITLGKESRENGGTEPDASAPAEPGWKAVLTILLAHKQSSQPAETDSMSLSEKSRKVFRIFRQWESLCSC
UniProt Q9H5H4: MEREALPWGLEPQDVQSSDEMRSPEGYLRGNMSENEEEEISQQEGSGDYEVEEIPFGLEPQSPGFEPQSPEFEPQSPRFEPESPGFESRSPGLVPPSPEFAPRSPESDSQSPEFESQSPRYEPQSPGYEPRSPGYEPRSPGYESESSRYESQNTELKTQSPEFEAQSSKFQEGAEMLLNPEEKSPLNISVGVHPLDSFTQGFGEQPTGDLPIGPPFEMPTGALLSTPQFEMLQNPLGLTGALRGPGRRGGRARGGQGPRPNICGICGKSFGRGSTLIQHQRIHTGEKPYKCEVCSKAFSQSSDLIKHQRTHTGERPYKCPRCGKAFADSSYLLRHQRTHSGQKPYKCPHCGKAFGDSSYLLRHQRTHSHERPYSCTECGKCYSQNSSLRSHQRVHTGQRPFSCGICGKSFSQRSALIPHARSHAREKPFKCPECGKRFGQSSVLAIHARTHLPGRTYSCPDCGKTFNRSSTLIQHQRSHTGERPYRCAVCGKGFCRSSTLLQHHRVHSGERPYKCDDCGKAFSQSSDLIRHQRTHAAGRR

XL888 [2] = compound: T1, XL888; assay: as above; conditions: 100 µM; treatment time 2 h; layout: intact cells; SK-Mel 24
Description: as §1, with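 “24” for “28”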

Target	phosphopeptide melting temperature shift (XL888 [1])	phosphopeptide melting temperature shift (XL888 [2])
ABCF1 phosphosite_109 (phosphosite position: 109) (UniProt Q8NE71)	-1.13 ± 3 °C	-1.15 °C
ABCF1 phosphosite_140 (phosphosite position: 140) (UniProt Q8NE71)	-0.829 ± 0.91 °C	-0.986 °C
ABCF1 phosphosite_228 (phosphosite position: 228) (UniProt Q8NE71)	-1.2 ± 0.48 °C	-0.62 ± 0.12 °C
ACACA phosphosite_80 (phosphosite position: 80) (UniProt Q13085)	-0.0448 °C	0.0199 °C
ACAP2 phosphosite_521 (phosphosite position: 521) (UniProt Q15057)	0.749 °C	1.43 °C
ACLY phosphosite_455 (phosphosite position: 455) (UniProt P53396)	0.234 ± 0.34 °C	-0.456 ± 0.28 °C
ACTG1 phosphosite_239 (phosphosite position: 239) (UniProt P63261)	-1.7 °C	-1.91 °C
AHNAK phosphosite_135 (phosphosite position: 135) (UniProt Q09666)	0.782 ± 2.3 °C	1.88 °C
AKAP11 phosphosite_1242 (phosphosite position: 1242) (UniProt Q9UKA4)	-1.64 °C	1.26 °C
AMPD2 phosphosite_190 (phosphosite position: 190) (UniProt Q01433)	1.11 ± 1 °C	0.0152 °C
ANAPC1 phosphosite_688 (phosphosite position: 688) (UniProt Q9H1A4)	0.898 ± 0.4 °C	-0.726 ± 0.13 °C
ANKS1A phosphosite_661 (phosphosite position: 661) (UniProt Q92625)	-0.379 ± 0.73 °C	0.901 ± 0.41 °C
ANP32B phosphosite_244 (phosphosite position: 244) (UniProt Q92688)	-0.319 ± 0.59 °C	1.11 °C
ANXA2 phosphosite_127 (phosphosite position: 127) (UniProt P07355)	0.731 ± 0.036 °C	-0.107 °C
ARFGAP3 phosphosite_143 (phosphosite position: 143) (UniProt Q9NP61)	1.21 ± 0.54 °C	-1.27 °C
ARFGEF2 phosphosite_227 (phosphosite position: 227) (UniProt Q9Y6D5)	1.26 ± 0.2 °C	0.572 °C
ARFGEF2 phosphosite_277 (phosphosite position: 277) (UniProt Q9Y6D5)	5.53 °C	0.75 °C
ARHGEF11 phosphosite_271 (phosphosite position: 271) (UniProt O15085)	0.7 ± 1.3 °C	0.96 °C
ARHGEF11 phosphosite_635 (phosphosite position: 635) (UniProt O15085)	0.155 °C	-1.07 °C
ARHGEF11 phosphosite_1458 (phosphosite position: 1458) (UniProt O15085)	1.46 °C	3.01 °C
ASAP1 phosphosite_717 (phosphosite position: 717) (UniProt Q9ULH1)	0.36 ± 0.18 °C	0.469 °C
ASAP2 phosphosite_701 (phosphosite position: 701) (UniProt O43150)	0.428 ± 0.093 °C	0.809 °C
BAD phosphosite_75 (phosphosite position: 75) (UniProt Q92934)	0.477 °C	-0.442 °C
CAD phosphosite_1859 (phosphosite position: 1859) (UniProt P27708)	0.569 °C	0.0156 °C
CANX phosphosite_583 (phosphosite position: 583) (UniProt P27824)	1.28 °C	3.51 °C
CAPG phosphosite_337 (phosphosite position: 337) (UniProt P40121)	-0.313 ± 0.12 °C	0.115 °C
CARHSP1 phosphosite_30 (phosphosite position: 30) (UniProt Q9Y2V2)	-1.77 ± 2.9 °C	-1.01 °C

Target	phosphopeptide melting temperature shift (XL888 [1])	phosphopeptide melting temperature shift (XL888 [2])
CARHSP1 phosphosite_41 (phosphosite position: 41) (UniProt Q9Y2V2)	2.36 ± 0.79 °C	-0.0572 °C
CARHSP1 phosphosite_52 (phosphosite position: 52) (UniProt Q9Y2V2)	-0.166 ± 0.038 °C	-1.07 °C
CBX3 phosphosite_95 (phosphosite position: 95) (UniProt Q13185)	0.166 ± 0.62 °C	0.391 °C
CCDC6 phosphosite_419 (phosphosite position: 419) (UniProt Q16204)	2.12 ± 0.19 °C	0.206 °C
CCDC43 phosphosite_139 (phosphosite position: 139) (UniProt Q96MW1)	0.621 ± 1.2 °C	1.28 °C
CCNL1 phosphosite_352 (phosphosite position: 352) (UniProt Q9UK58)	0.31 °C	-1.53 ± 0.59 °C
CDK2 phosphosite_14 (phosphosite position: 14) (UniProt P24941)	3.66 ± 0.94 °C	1.45 ± 0.89 °C
CDK2 phosphosite_15 (phosphosite position: 15) (UniProt P24941)	2.86 °C	3.02 ± 0.46 °C
CLNS1A phosphosite_102 (phosphosite position: 102) (UniProt P54105)	1.77 ± 0.78 °C	1.54 °C
CTR9 phosphosite_925 (phosphosite position: 925) (UniProt Q6PD62)	-0.808 °C	-0.324 °C
DBN1 phosphosite_142 (phosphosite position: 142) (UniProt Q16643)	0.834 ± 1.3 °C	-0.863 °C
DBN1 phosphosite_337 (phosphosite position: 337) (UniProt Q16643)	3.4 ± 1.4 °C	0.522 °C
DDX54 phosphosite_782 (phosphosite position: 782) (UniProt Q8TDD1)	3.3 ± 1.1 °C	-0.0108 °C
DENR phosphosite_73 (phosphosite position: 73) (UniProt O43583)	6.16 °C	0.693 ± 0.2 °C
DHX16 phosphosite_160 (phosphosite position: 160) (UniProt O60231)	-2.99 °C	0.176 °C
DKC1 phosphosite_494 (phosphosite position: 494) (UniProt O60832)	-1.51 ± 0.78 °C	-1.84 °C
DYNC1H1 phosphosite_4368 (phosphosite position: 4368) (UniProt Q14204)	0.166 ± 0.071 °C	-0.44 °C
DYNC1LI1 phosphosite_207 (phosphosite position: 207) (UniProt Q9Y6G9)	-0.745 ± 1.7 °C	-0.403 °C
EBAG9 phosphosite_36 (phosphosite position: 36) (UniProt O00559)	0.793 ± 0.6 °C	1.92 ± 0.34 °C
EEF1B2 phosphosite_106 (phosphosite position: 106) (UniProt P24534)	1 ± 0.49 °C	-0.0126 ± 0.051 °C
YWHAZ phosphosite_207 (phosphosite position: 207) (UniProt P63104)	–	0.225 °C
ZBTB7A phosphosite_337 (phosphosite position: 337) (UniProt O95365)	–	-0.93 °C
ZC3H18 phosphosite_893 (phosphosite position: 893) (UniProt Q86VM9)	–	-3.42 °C
ZC3HC1 phosphosite_321 (phosphosite position: 321) (UniProt Q86WB0)	–	-0.577 ± 0.16 °C
ZC3HC1 phosphosite_395 (phosphosite position: 395) (UniProt Q86WB0)	–	-0.325 °C
ZNF768 phosphosite_83 (phosphosite position: 83) (UniProt Q9H5H4)	–	1.47 °C
ZNF768 phosphosite_125 (phosphosite position: 125) (UniProt Q9H5H4)	–	-1.04 °C

Reprinted at random: 5 records from the list.
Target	phosphopeptide melting temperature shift (XL888 [1])	phosphopeptide melting temperature shift (XL888 [2])
DHX16 phosphosite_160 (phosphosite position: 160) (UniProt O60231)	-2.99 °C	0.176 °C
ZBTB7A phosphosite_337 (phosphosite position: 337) (UniProt O95365)	–	-0.93 °C
CDK2 phosphosite_14 (phosphosite position: 14) (UniProt P24941)	3.66 ± 0.94 °C	1.45 ± 0.89 °C
CTR9 phosphosite_925 (phosphosite position: 925) (UniProt Q6PD62)	-0.808 °C	-0.324 °C
CDK2 phosphosite_15 (phosphosite position: 15) (UniProt P24941)	2.86 °C	3.02 ± 0.46 °C

— the supplement of paper PMC5836539
